Results: PubChem BioAssay AID504444 (National Center for Advancing Translational Sciences (NCATS), 2011)
The whole screen tested about 360,000 compounds, of which about 7,500 (2.1%) were called active. The shares of active, inactive and inconclusive entries below differ from those in the screen. Calls come from the whole dose curve; as a rule, active = well fitted inhibition curve with a large enough effect; inconclusive = small, poorly fitted or top-dose-only effect, or effect the other way; inactive = flat fitted curve, though single readings scatter. A potency beside an inconclusive call is a rough fit, not a confirmed value.

Assay: Nrf2 qHTS screen for inhibitors; note: nearly all actives have a fitted effect of over 60% in size
Settings: A549 ARE-Fluc reporter, luciferase luminescence, 18-24 h; activity change, negative = inhibition: at 46 µM (top of the series)
Method in brief: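 A549 ARE_Fluc cells, 5000/well, 5% FBS OPTI-MEM; compounds in dose-response, 18-24 h at 37 °C/5% CO2; CellTiter-Fluor viability read (Ex 405/Em 525), then BugLite luciferase luminescence = Nrf2 activity.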
% is set by controls: 0 for no effect and ±100 for the full control effect; potency is the fitted concentration of half-maximal effect.

Row | Structure (SMILES) | Potency | activity change, negative = inhibition
1 | NN/C(=C\[N+](=O)[O-])Nc1ccccc1 | inconclusive: 16.4 µM [activator, single point] | –
2 | COc1cc(/C=N/NC(=O)C(NC(=O)c2ccccc2)c2n[nH]c(=O)c3ccccc23)ccc1OCC(N)=O (configuration not stated) | – | inactive: -17%
3 | CC(=O)N1CCN(c2ccc(NC(=O)c3ccc(N4CCCC4)c([N+](=O)[O-])c3)cc2Cl)CC1 | active: 23.1 µM | –
4 | Cc1onc(-c2ccccc2Cl)c1C(=O)N1CCN(c2cccc(Cl)c2)CC1 | inconclusive: 0.116 µM [falling, full curve, poor fit] | –
5 | COC(=O)c1cc(S(=O)(=O)N2CCC(c3ccccc3)C2)c[nH]1 (configuration not stated) | – | inactive: 11.5%
6 | O=C(NCc1cccc(Cl)c1)C1CCCN(c2ncnc3onc(-c4ccc(F)cc4)c23)C1 (configuration not stated) | – | inactive: -12.8%
7 | C=C1C2C[C@H](O)C(C)(C)[C@@]2(O)[C@H](O)C[C@]23C[C@@](C)(O)[C@H](CC[C@H]12)[C@H]3O (some centres not stated) | inconclusive: 6.51 µM [falling, single point] | –
8 | Cc1ccc2oc(-c3cc(NC(=O)/C=C/c4ccco4)ccc3Cl)nc2c1 | inconclusive: 25.9 µM [activator, single point] | –
9 | CCC(C)(CC(=O)O)CC(=O)Nc1cc(C(F)(F)F)cc(C(F)(F)F)c1 (configuration not stated) | inconclusive: 14.6 µM [falling, partial curve, poor fit] | –
10 | CC(=O)Nc1nonc1-c1nc2ccccc2n1Cc1ccccc1Br | inconclusive: 3.26 µM [activator, partial curve] | –
11 | Clc1ccccc1-c1nnc(-c2cccs2)o1 | inconclusive: 8.2 µM [activator, partial curve] | –
12 | O=[N+]([O-])c1ccc(CSc2ccccn2)cc1 | inconclusive: 6.51 µM [activator, partial curve, poor fit] | –
13 | N#CCCn1ccc(NC(=O)c2ccc(Cl)cc2)n1 | inconclusive: 2.06 µM [activator, partial curve, poor fit] | –
14 | Cc1ccc(-c2csc3nc(SCC(N)=O)n(Cc4ccccc4)c(=O)c23)cc1 | inconclusive: 29.1 µM [falling, single point] | –
15 | COc1c2ccoc2c(OC)c2oc(=O)ccc12 | inconclusive: 7.31 µM [falling, partial curve, poor fit] | –
16 | COc1ccc(Nc2ncnc3sccc23)cc1 | – | inactive: 3.81%
17 | Brc1ccc2nc(SCCOc3ccccc3)[nH]c2c1 | – | inactive: -2.93%
18 | COc1ccccc1C(=O)NCCC(=O)Nc1ccc(S(=O)(=O)Nc2ncccn2)cc1 | – | inactive: 1.67%
19 | O=C(NCC(=O)N1CCc2ccccc2C1)c1ccccc1Cl | inconclusive: 8.2 µM [activator, partial curve] | –
20 | O=C(C1CCN(Cc2cc(Cl)ccc2O)CC1)N1CCN(Cc2ccccc2)CC1 | – | inactive: 2.17%
21 | CCN(CCn1cccn1)Cc1nc(-c2ccc(OC)cc2)no1 | – | inactive: 0.556%
22 | CCOc1ccc(OCC)c(Nc2nc3ccc(Cl)cc3n3cnnc23)c1 | – | inactive: 11%
23 | CC1C(=O)N(Cc2ccccc2)c2ccccc2N1C(=O)c1ccccc1 (configuration not stated) | inconclusive: 29.1 µM [falling, single point] | –

Row | Structure (SMILES) | Potency | activity change, negative = inhibition
24 | CCN(CC)CC#CC(OC)(c1ccccc1)c1ccccc1 | inconclusive: 0.82 µM [activator, full curve] | –
25 | O=C(Nc1cccc2ncccc12)c1ccc([N+](=O)[O-])o1 | – | inactive: -3.17%
26 | Cc1cc(O)ccc1Nc1nc(-c2cccnc2)cs1 | inconclusive: 29.1 µM [activator, single point] | –
27 | COc1ccc(N(CC(=O)Nc2nc3ccc(C)cc3s2)S(=O)(=O)c2c(C)nn(C)c2C)cc1 | – | inactive: 10.6%
28 | Cc1nc(C(=O)NCc2ccccc2)sc1C1(C)CC(c2cccnc2)=NO1 (configuration not stated) | inconclusive: 16.4 µM [falling, single point] | –
29 | O=C(Nc1ccc(C(F)(F)F)cc1)N1CCC(N2CCCCC2)CC1 | – | inactive: 12.6%
30 | C=CCNc1nc(N)c([N+](=O)[O-])c(N2CCCCCC2)n1 | inconclusive: 29.1 µM [falling, single point] | –
31 | CCC(C)[C@H](NC(=O)Nc1ccc2c(c1)OCCO2)C(=O)OC (some centres not stated) | inconclusive: 23.1 µM [activator, partial curve, poor fit] | –
32 | Cc1cccc(/C=C2\CCC(=C3SCCCS3)C2=O)c1 | inconclusive: 2.31 µM [activator, partial curve, poor fit] | –
33 | CC1CCN(C(=O)CCCN2C(=O)c3cccnc3Oc3ccc(Cl)cc32)CC1 | inconclusive: 29.1 µM [falling, single point] | –
34 | COc1ccc(CCNC(=O)Cn2cc(C(=O)c3ccc(F)cc3)c(=O)c3ccc(C)nc32)cc1OC | inconclusive: 10.3 µM [falling, partial curve, poor fit] | –
35 | O=C(NC1CCCCCCC1)NC1CCCCC1 | inconclusive: 29.1 µM [activator, single point] | –
36 | Cc1ccc(-c2nc3cc(C(C)C)ccc3o2)cc1NC(=O)c1cc([N+](=O)[O-])ccc1N1CCOCC1 | inconclusive: 5.8 µM [activator, full curve] | –
37 | CCCCN1C(=O)C(=O)c2cc(Cl)ccc21 | – | inactive: 1.14%
38 | COc1ccc(OC)c(/C=C/C(=O)N(C)CC(=O)Nc2ccc(N3CCOCC3)cc2)c1 | – | inactive: -4.5%
39 | S=C(Nc1cc(Cl)cc(Cl)c1)NC1CCN(Cc2ccccc2)CC1 | inconclusive: 25.9 µM [falling, single point] | –
40 | COCCCNC(=O)C1CCCN(c2nn3cc(-c4ccc(C)cc4)nc3s2)C1 (configuration not stated) | inconclusive: 23.1 µM [activator, partial curve, poor fit] | –
41 | CCCCCn1ccc(=N)cc1 | active: 0.92 µM | –
42 | CC(C)(C)C(=O)Cn1c(=O)n(-c2ccc(Cl)c(Cl)c2)c(=O)c2c3c(sc21)CCCC3 | inconclusive: 9.2 µM [falling, partial curve, poor fit] | –
43 | O=C(OCC(=O)N1CCOCC1)c1ccc2ccccc2c1O | – | inactive: 21%
44 | Cc1ccc(Oc2ccc(C(=O)NCc3ccncc3)cc2)cc1 | inconclusive: 16.4 µM [falling, single point] | –
45 | Cc1ccc(OCCNC(=O)CCNS(=O)(=O)c2ccc(C)cc2)cc1 | – | inactive: 4.48%
46 | COc1ccc2[nH]c3nc(SC(C)C)nnc3c2c1 | inconclusive: 23.1 µM [activator, single point] | –

Row | Structure (SMILES) | Potency | activity change, negative = inhibition
47 | CCOC(=O)C1=C(N)n2c(s/c(=C/c3ccco3)c2=O)=C(C(=O)OC)C1c1ccco1 (configuration not stated) | inconclusive: 1.46 µM [falling, full curve] | –
48 | CCOC(=O)c1cnc2ccc(C)cc2c1Nc1ccc(N2CCOCC2)cc1 | inconclusive: 20.6 µM [falling, single point] | –
49 | COc1ccc(C(=O)NCCNc2nc3c(C)cccc3cc2C#N)cc1OC | inconclusive: 5.17 µM [falling, partial curve, poor fit] | –
50 | Cc1ccc(C(=O)NCC(=O)N2CCCCCC2)cc1 | inconclusive: 29.1 µM [activator, single point] | –
51 | C=CCNc1nc(N)c(C(=C(C#N)C#N)c2ccc(Br)cc2)s1 | inconclusive: 32.6 µM [falling, single point] | –
52 | CCOc1ccc(NS(=O)(=O)c2ccc(OC)c(NC(=O)c3ccc4c(c3)OCCO4)c2)cc1 | inconclusive: 29.1 µM [falling, single point] | –
53 | COCCCn1c(SCC(=O)Nc2ccc(NC(=O)c3ccco3)c(OC)c2)nc2ccccc2c1=O | inconclusive: 29.1 µM [falling, single point] | –
54 | Cc1ccc(N=C2S/C(=C\c3cn(CC(=O)O)c4ccccc34)C(=O)N2C)cc1 | – | inactive: 5.27%
55 | COc1ccccc1OCCNC(=O)c1cc(C2CC2)nc2c1cnn2C(C)C | inconclusive: 16.4 µM [falling, single point] | –
56 | O=C(NCCc1ccccc1)c1ccc(NCC2CCCO2)c([N+](=O)[O-])c1 (configuration not stated) | inconclusive: 25.9 µM [activator, single point] | –
57 | COc1ccccc1NC(=O)c1ccc(S(=O)(=O)N(C)c2ccccc2)cc1 | inconclusive: 6.51 µM [falling, single point] | –
58 | C=CCOn1c(=O)c(-c2ccc(OCC)cc2)[n+]([O-])c2ccccc21 | inconclusive: 4.61 µM [activator, partial curve, poor fit] | –
59 | Cc1cccc(N2CCN(C(=O)[C@H](C)N3C(=O)C4CC=CCC4C3=O)CC2)c1C (some centres not stated) | inconclusive: 23.1 µM [falling, partial curve, poor fit] | –
60 | Cc1cccc(-c2nc3ccccc3n3c(-c4ccccc4)c4c(=O)n(C)c(=O)n(C)c4c23)c1 | – | inactive: 8.95%
61 | O=C(CCC1(C(=O)O)CCC(=O)NC1)NCc1ccccc1 (configuration not stated) | inconclusive: 3.66 µM [falling, partial curve, poor fit] | –
62 | Cc1ccc(-c2nnc(N3CCN(C(=O)c4cccs4)CC3)c3ccccc23)cc1 | inconclusive: 16.4 µM [falling, single point] | –
63 | CCN(CC)C(=O)CSc1nc2ccccc2c(=O)n1-c1cccc(OC)c1 | inconclusive: 6.51 µM [activator, single point] | –
64 | Cc1cc(C)c(C(=O)CC2(O)C(=O)Nc3ccccc32)cc1C (configuration not stated) | inconclusive: 29.1 µM [falling, single point] | –
65 | COc1ccc(/C(N)=N/OC(=O)CSc2ccccc2)cc1 | inconclusive: 9.2 µM [activator, partial curve, poor fit] | –
66 | COc1ccc(-n2nnc(-c3nc(-c4cccs4)no3)c2N)cc1 | inconclusive: 0.517 µM [activator, partial curve, poor fit] | –
67 | Nc1cccc(S(=O)(=O)Nc2ccc(Br)cc2)c1 | inconclusive: 20.6 µM [falling, partial curve, poor fit] | –
